Earlier results as cited in patent US11532831B1, “Redox-active compounds and uses thereof” (Palo Alto Research Center Incorporated, priority 2021, dated 2022).
At least one read-out could not be matched to a standard name with certainty.

Details: Selemion DSV; cited from earlier work

Substance: bis(trimethylammoniopropyl)ferrocene [BTMAP-Fc]
- Permeability: 6.2 × 10^−10 cm^2/s
